{"sequences": {"note": "By UniProt entry, the sequences of proteins in these tests, tags left out. Where a name states a change or a piece, a line headed by the entry shows the natural chain unless it says otherwise.", "UniProt P51450": "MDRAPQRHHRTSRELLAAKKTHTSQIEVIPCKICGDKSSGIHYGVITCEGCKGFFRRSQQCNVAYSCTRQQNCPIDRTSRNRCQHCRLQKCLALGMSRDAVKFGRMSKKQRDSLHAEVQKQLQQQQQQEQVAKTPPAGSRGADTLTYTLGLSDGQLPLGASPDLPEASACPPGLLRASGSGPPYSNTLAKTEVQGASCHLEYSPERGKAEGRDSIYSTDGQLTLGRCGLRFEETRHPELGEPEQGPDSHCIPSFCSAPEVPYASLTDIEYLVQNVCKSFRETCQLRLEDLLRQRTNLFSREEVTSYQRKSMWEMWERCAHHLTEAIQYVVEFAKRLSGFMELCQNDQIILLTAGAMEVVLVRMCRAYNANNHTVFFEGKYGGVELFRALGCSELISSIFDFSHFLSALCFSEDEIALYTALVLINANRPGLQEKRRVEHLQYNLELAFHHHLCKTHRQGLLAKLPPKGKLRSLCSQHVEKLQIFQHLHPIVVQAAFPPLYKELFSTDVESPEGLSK"}, "source": "PubChem BioAssay AID2551", "about": "(National Center for Advancing Translational Sciences (NCATS), 2010)", "note": "The whole screen tested about 310,000 compounds, of which about 17,000 (5.5%) were called active. This list was built around the results that the source calls inconclusive (neither active nor inactive); the mix of calls is not that of the screen. The call rests on the fitted dose curve; in most records, active means well fitted inhibition curve with a large enough effect; inconclusive means small, poorly fitted or top-dose-only effect, or effect the other way; inactive means no such curve, though single readings can be large or run the other way. Where the call is inconclusive, the potency comes from a doubtful curve fit. Potency means the concentration at half of the fitted maximal effect."}
{"target": "Nuclear receptor ROR-gamma (Mus musculus) (UniProt P51450)", "assay": "qHTS for inhibitors of ROR gamma transcriptional activity; further: nearly all actives have a fitted effect of over 60% in size", "conditions": "Drosophila S2 Gal4-RORgamma UAS-luciferase reporter, 20 h; series mostly up to 53.6 µM", "method_in_brief": "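Luminescence from a UAS-regulated Photinus luciferase reporter in stably transfected Drosophila Schneider cells is measured; decreased signal marks ROR gamma inhibition. Fusion expression is induced by 700 uM copper sulfate for 20 hr.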"}
{"smiles": "CC(NC(=S)Nc1ccc(Cl)cc1)C(c1ccccc1)N1CCOCC1", "note": "(centres undefined)", "Potency": "active: 6.31 µM"}
{"smiles": "CCn1c(=O)c(C(=O)Nc2nc3ccccc3[nH]2)c(O)c2ccccc21", "Potency": "active: 11.2 µM"}
{"smiles": "CCOc1ccc(NC(=O)CN2CC(c3ccccc3)CC2=O)cc1", "note": "(centres undefined)", "Potency": "inconclusive: 0.005 µM [inhibitor, full curve, poor fit]"}
{"smiles": "COc1ccc(CN(C)C(=O)COC(=O)c2c(-c3ccccc3Cl)noc2C)cc1", "Potency": "inconclusive: 7.08 µM [activator, partial curve]"}
{"smiles": "O=C(Nc1ccc(N2CCN(C(=O)c3ccco3)CC2)cc1)c1cccc(F)c1", "Potency": "inconclusive: 7.94 µM [activator, partial curve]"}
{"smiles": "Cc1cccc(-n2cc3c(=O)n(C)c(=O)n(C)c3c2)c1", "Potency": "inactive"}
{"smiles": "COc1cccc(CS(=O)(=O)c2nnnn2-c2ccc(F)cc2Br)c1", "Potency": "inactive"}
{"smiles": "Cc1ccc2nc(NC(=O)c3cccc(-c4cc5ccccc5oc4=O)c3)sc2c1", "Potency": "inconclusive: 25.1 µM [inhibitor, single point]"}
{"smiles": "Cc1ccc(-n2nnnc2SCn2nnc3ccccc3c2=O)cc1", "Potency": "inconclusive: 2.82 µM [activator, partial curve]"}
{"smiles": "Cc1cccc(NC(=S)NNC(=O)c2ccccc2Br)c1", "Potency": "active: 0.891 µM"}
{"smiles": "CC(C)(C)OC(=O)NCCCC[C@H](NC(=O)c1[nH]cnc1C(=O)N[C@@H](Cc1ccccc1)C(=O)OC(C)(C)C)C(=O)OC(C)(C)C", "Potency": "active: 7.94 µM"}
{"smiles": "Cc1cc(C)n(-c2nc3ccccc3c(=O)n2OCc2ccc(F)cc2)n1", "Potency": "inconclusive: 4.47 µM [activator, single point]"}
{"smiles": "S=C1SCN(Cc2cccnc2)CN1Cc1cccnc1", "Potency": "active: 0.631 µM"}
{"smiles": "COC(=O)c1cccc(NC(=O)NC(=O)c2ccccc2Cl)c1", "Potency": "inconclusive: 0.126 µM [inhibitor, full curve, poor fit]"}
{"smiles": "COc1ccc(Cl)cc1NC(=O)C/C(C)=N/NC(=O)c1ccccc1[N+](=O)[O-]", "Potency": "inconclusive: 10 µM [inhibitor, single point]"}
{"smiles": "COc1ccc(S(=O)(=O)N2CCCCCC2)cc1NC(=O)Cc1cc(OC)c(OC)c(OC)c1", "Potency": "inconclusive: 12.6 µM [activator, single point]"}
{"smiles": "Cc1ccc(NS(=O)(=O)c2ccc(NC(=O)c3cccc(NC(=O)C(C)C)c3)cc2)cc1", "Potency": "inconclusive: 15.8 µM [activator, single point]"}
{"smiles": "O=C(N/N=C/c1ccco1)C1CCCC1", "Potency": "inactive"}
{"smiles": "N#C/C(=C(/O)CCl)c1nnc2n1CCCCC2", "Potency": "inconclusive: 35.5 µM [inhibitor, single point]"}
